Test results from PubChem BioAssay AID1259415 (National Center for Advancing Translational Sciences (NCATS), 2018).
In all, about 410,000 compounds went through this assay and about 18,000 (4.4%) were called active. The shares of active, inactive and inconclusive entries below differ from those in the screen. Rule as the data show it: active = activity change below about -60%; inconclusive = no clear call, values can overlap the other calls; inactive = above about -39%.

experiment: qHTS Assay for inhibitors of the human cytomegalovirus (HCMV); conditions: HFF cells, HCMV-luciferase reporter, 72 h; at 57.5 µM; stronger effect = lower value
How it was run: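 Luciferase read-out from HCMV-luciferase-infected HFFs (MOI 1 PFU/cell) 72 h post infection at 37C; compounds added after 16 h cell attachment; activity normalized between buffer-only basal and Salinomycin (10uM) inhibitor controls.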
% is scaled to controls: 0 for no effect and ±100 for the full control effect.

SMILES	activity change, negative = inhibition
COc1ccc(CN(C)C(C)C(=O)NC2CCCc3ccccc32)cc1 (configuration not stated)	inconclusive: -55.5%
Cc1ccc(NC(=O)c2ccc(OC(F)(F)F)cc2)cc1S(=O)(=O)N(C)C	active: -99.4%
COC(=O)c1ccc(N2CCS(=O)(=O)CC2)cc1	inactive: -14.2%
COc1ccc(C2=CC(=O)C[C@H](c3ccc(F)cc3)C2)cc1F	inactive: -17.8%
COC(=O)c1sccc1NC(=S)Nc1ccc(F)cc1	inconclusive: -47.6%
COC(=O)c1ccccc1NC(=S)N(Cc1ccc2c(c1)OCO2)Cc1cc2ccc(C)cc2[nH]c1=O	inconclusive: -41.7%
COc1ccccc1N1CCN(C(=O)CCc2nnc3ccc(N4CCOCC4)nn23)CC1	inactive: -39.3%
C=C1c2cc(C)c(C)cc2NC(=O)N1c1ccccc1	inactive: 14.3%
CC(=O)C1=C(O)CC(c2ccccc2)CC1=NCCc1ccccc1 (configuration not stated)	inconclusive: -41.2%
Cc1ccc2c(c1)N(S(=O)(=O)c1cc(-c3cc(C)no3)ccc1C)CCO2	active: -81.3%
CCN1C(=O)N/C(=C/c2cc(C)n(Cc3ccccc3)c2C)C1=O	inconclusive: -46.3%
Cn1cc(-c2csc(C(O)(c3ccccc3)C(F)(F)F)n2)cn1 (configuration not stated)	inconclusive: -43.3%
Cc1ccc(N(C)C(=O)c2noc3c2CCCCC3)cc1C	inactive: -38.5%
Fc1ccc(CNc2ccc(N3CCN(Cc4ccccc4)CC3)cc2)cc1	inconclusive: -43.4%
CN(C)c1ccc(-c2nc3ccccn3c2Nc2ccc3c(c2)OCCO3)cc1	active: -95.9%
CCN(CC)C1=N/C(=C\c2ccc(OC)cc2)C(=O)N1c1ccccc1	active: -73.8%
COc1ccc(OC)c(NC(=O)c2cc3c(=O)n4cccc(C)c4nc3n2C)c1	inactive: -37.1%
COc1ccc(CCNC(=S)Nc2ccc(C(C)C)cc2)cc1	inactive: -13.8%
O=C(COC(=O)C1CCCCC1C(=O)N1CCc2ccccc21)NCc1ccco1 (configuration not stated)	inconclusive: -43.2%
CCc1ccccc1N1CC(c2nc3ccccc3n2CCC2CCCCC2)CC1=O (configuration not stated)	active: -108%
COc1ccc(N(CC(=O)N2CCCCCC2)S(=O)(=O)c2ccccc2)cc1	inconclusive: -43.7%
Cc1cccc(NC(=O)/C(C#N)=C/c2cccc([N+](=O)[O-])c2)n1	inactive: 32.9%

SMILES	activity change, negative = inhibition
O=C(CSc1nnc(SCc2ccccc2)s1)N/N=C/C=C\c1ccco1	inconclusive: -43.6%
O=C(c1ccc2ccccc2n1)N1CCN(c2ccccc2)CC1	inactive: 44.1%
O=c1c2ccccc2n2c(-c3cccc(F)c3)nnc2n1Cc1ccccc1	inconclusive: -57%
CCOc1ccc(S(=O)(=O)Nc2nc3ccc(OC)cc3s2)cc1	inconclusive: -46.1%
O=C(NCc1nnc(SCc2ccc(F)cc2)n1-c1ccc(F)cc1)C12CC3CC(CC(C3)C1)C2	inactive: 16.8%
CSc1nc(-c2ccc(Cl)cc2)nn1C(=O)c1ccccc1	inconclusive: -52%
CCn1c(SCC(=O)Nc2ccc(OC)cc2OC)nc2nc3c(cc2c1=O)COC(C)(C)C3	inconclusive: -49.6%
CCCOc1ccccc1C(=O)Nc1nc2c(s1)CCCC2	active: -63.7%
CN(Cc1ccccc1)C(=O)c1ccc2c(c1)N(Cc1ccc(Cl)cc1)C(=O)c1ccccc1S2=O (configuration not stated)	inconclusive: -53.7%
CSc1ccc(C#N)cc1NC(=O)c1ccc(Cl)nc1	inconclusive: -49%
Cc1ccc(-n2nc(C)c(C(=O)NCCCN3CCN(c4ccccc4F)CC3)c2-n2cccc2)cc1	inconclusive: -51.8%
CCOC(=O)c1cnc2c(C)cc(C)cc2c1Nc1ccc(N2CCOCC2)cc1	inactive: 6.54%
O=[N+]([O-])c1ccc(NC2CCCCC2)nc1	inconclusive: -49%
COc1cc(C)ccc1N(CCCN1C(=O)c2cccc3cccc(c23)C1=O)C(=O)c1cccs1	inconclusive: -50%
O=C(c1ccc(Cl)c([N+](=O)[O-])c1)N(Cc1ccc(Cl)cc1)C1CCS(=O)(=O)C1 (configuration not stated)	active: -60.1%
Cc1ccccc1N(C)C(=O)C1CCCN(c2ncnc3c2nc2n3CCCCC2)C1 (configuration not stated)	inactive: -35.5%
CCc1nc(SCC(=O)NNC(=O)c2ccc(C)cc2)c2ccccc2n1	inconclusive: -49.1%
CCN(C(=O)c1cc(S(=O)(=O)N2CCCC2)ccc1C)C1CCS(=O)(=O)C1 (configuration not stated)	inconclusive: -57.2%
COc1cccc2cc(C(=O)NCc3ccco3)c(=O)oc12	inconclusive: -58.4%
Cc1cccc(N2CCN(C(=O)c3cccc(-n4c(C)nc5cccnc54)c3)CC2C)c1 (configuration not stated)	inconclusive: 0%
Nc1nonc1-n1nnc(C(=O)N/N=C/c2ccc3c(c2)OCO3)c1-c1ccccc1	active: -69.7%
COc1cc(C(C)=NNC(=O)c2ccncc2)ccc1O	active: -101%

SMILES	activity change, negative = inhibition
O=C(c1cccc(S(=O)(=O)N2CCc3ccccc32)c1)N1CCCC(C(F)(F)F)C1 (configuration not stated)	inconclusive: -49.4%
CC(C)CNC(=O)COC(=O)c1ccccc1OCC(=O)Nc1ccc(Br)cc1	inconclusive: -58.8%
COCCn1c(=S)[nH]c2cc(C(=O)N(CCO)Cc3ccccc3)ccc2c1=O	inconclusive: -46.1%
COCCN1C(=O)c2oc3ccc(C)cc3c(=O)c2C1c1ccc(C(=O)OC)cc1 (configuration not stated)	inconclusive: -56.3%
Cc1ccc(C(C)C)cc1OCC(=O)Nc1nnc(C2CC2)s1	active: -84%
CC(C)c1ccc(S(=O)(=O)N2CCN(C(C)C(=O)NC3CCCC3)CC2)cc1 (configuration not stated)	inconclusive: -41.7%
CC(Sc1ncnc2ccccc12)C(=O)Nc1ccc2c(c1)OCCO2 (configuration not stated)	active: -72.6%
Cc1c(Cc2ccccc2)sc(NC(=O)C(C)(C)C)c1C(N)=O	inconclusive: -52.9%
COc1ccc(NC(=O)c2ccc(-n3cnnn3)cc2)c([N+](=O)[O-])c1	inconclusive: -47.9%
COc1nnc(-c2ccc(N3CCOCC3)c(NC(=O)c3ccccc3)c2)c2ccccc12	inconclusive: -43.9%
Cc1ccccc1Nc1nnc(-c2ccc(C)c(S(=O)(=O)NCC3CCCO3)c2)c2ccccc12 (configuration not stated)	active: -75.9%
CC1CCCCC12NC(=O)N(CC(=O)N1CCN(c3ncccn3)CC1)C2=O (configuration not stated)	inconclusive: -47.9%
COc1ccc2cc3c(N)nn(C(=O)Cc4ccc(Cl)cc4)c3nc2c1	active: -66.6%
O=C1Nc2cc(C(=O)NCC3CCCO3)ccc2S/C1=C/c1ccccc1F (configuration not stated)	inconclusive: -50.1%
COc1ccc(-c2coc3c(C(=O)NCc4ccc(F)c(F)c4)cccc23)c(C)c1	inconclusive: -46.5%
CC(=O)c1ccc(OC(=O)Oc2ccc(C(C)=O)cc2)cc1	inactive: 27.5%
Fc1ccccc1N1CCN(c2nnnn2-c2ccccc2)CC1	inconclusive: -55.2%
CN(C)c1ccc(N=Nc2ccccc2C(=O)OCC(=O)Nc2ccccc2C(F)(F)F)cc1	active: -74.6%
CCOC(=O)CCCCCN1C(=O)c2cccc3cccc(c23)C1=O	active: -100%
COc1ccccc1CNC(=O)CCCc1nnc2n(C)c(=O)c3sccc3n12	inactive: 0.393%
COc1ccc(CCNC(=O)Cn2nc(-c3ccc(Cl)cc3)ccc2=O)cc1OC	inconclusive: -51.7%
Cc1cc(C)cc(C(=O)N2CCN=C2SCc2ccc([N+](=O)[O-])cc2)c1	inconclusive: -41.3%

4 entries from above in a different format:
CC(C)CNC(=O)COC(=O)c1ccccc1OCC(=O)Nc1ccc(Br)cc1
  activity change, negative = inhibition: inconclusive: -58.8%
Cc1c(Cc2ccccc2)sc(NC(=O)C(C)(C)C)c1C(N)=O
  activity change, negative = inhibition: inconclusive: -52.9%
Fc1ccccc1N1CCN(c2nnnn2-c2ccccc2)CC1
  activity change, negative = inhibition: inconclusive: -55.2%
COc1ccccc1CNC(=O)CCCc1nnc2n(C)c(=O)c3sccc3n12
  activity change, negative = inhibition: inactive: 0.393%

Additional entries

SMILES	activity change, negative = inhibition
CCCN1CCC(=NNc2ccc(S(=O)(=O)N(CC)CC)cc2[N+](=O)[O-])CC1	inconclusive: -59.8%
CCC(C)NS(=O)(=O)c1ccc(S(=O)(=O)N(CC(=O)Nc2ccccc2)CC2CCCO2)cc1 (configuration not stated)	inconclusive: -48.9%
Cn1cccc1C(=O)OCC(=O)N1CCc2ccccc2C1	active: -61.1%
Cc1ccccc1CSCC(=O)Nc1c(C)n(C)n(-c2ccccc2)c1=O	inconclusive: -41.1%
O=C(O)c1ccc(N/N=C/c2c[nH]c3ccccc23)cc1	active: -65%
NC(=O)CCC1NC(=S)N(Cc2ccccc2)C1=O (configuration not stated)	active: -66.9%
N#CCC(=O)Nc1ccc(C(=O)OCC(=O)NC(=O)NCc2ccco2)cc1	inconclusive: -44.3%
CC1CCN(C(=O)CN2C(=O)c3cccc4cccc(c34)C2=O)CC1	inconclusive: -47.1%
CC(=O)c1sc2nsc(SCCN3CCCC3)c2c1N	inconclusive: -57.6%
CCCc1nc2c3ccccc3ccn2c1Cc1ccccc1	inactive: 77%
COc1ccc(C(=O)c2ccc(N(C)C)cc2)c2ccccc12	active: -76.9%
N#C/C(=C\c1ccc(O)c(O)c1)C(=O)NCCc1ccccc1	inconclusive: -48.4%
CC1=CC=CC2=NC(=O)CC(C)(C(=O)N(CC(=O)NC3CCCC3)c3ccc(F)cc3)N12 (configuration not stated)	active: -82.2%
CCN(CC)c1ccc2cc(S(=O)(=O)c3ccc(C)cc3)c(=O)oc2c1	inconclusive: -49.6%
Cc1cc(C)c(C)c(S(=O)(=O)N2CCC(C(=O)N3CCCC3)CC2)c1C	inconclusive: -49.2%
Cc1ccc(Cl)c(OCCN2CCCC(C)C2)c1 (configuration not stated)	inconclusive: -54.5%
O=C(NCc1nc2ccccc2[nH]1)C1=C[C@@H](c2csc3ccccc23)C[C@@H](OCCCCO)O1	inactive: -18.8%
Cc1ccc(OC(F)F)c(NC(=O)Nc2cccc(C(F)(F)F)c2)c1	active: -99%
O=C(NC1CCN(Cc2ccccc2)CC1)c1ccc(CS(=O)c2ccc(F)cc2)o1 (configuration not stated)	inconclusive: -47.2%
COc1ccc(S(=O)(=O)CCC(=O)N2CCN(c3ccccc3F)CC2)cc1	inconclusive: -43.3%
CC(C)c1ccc(NC(=O)c2cc(S(=O)(=O)NCCC3=CCCCC3)ccc2F)cc1	inconclusive: -54.8%
